Results are given in words; binding and its absence hold for the method and conditions named. In cells and extracts the contact can be indirect. These calls come from enrichment with a bait or labelling near it, and not all partners need be listed.
B1: DNA replication licensing factor MCM5 (protein, UniProt P33992 1-734)
chain: MSGFDDPGIFYSDSFGGDAQADEGQARKSQLQRRFKEFLRQYRVGTDRTGFTFKYRDELKRHYNLGEYWIEVEMEDLASFDEDLADYLYKQPAEHLQLLEEAAKEVADEVTRPRPSGEEVLQDIQVMLKSDASPSSIRSLKSDMMSHLVKIPGIIIAASAVRAKATRISIQCRSCRNTLTNIAMRPGLEGYALPRKCNTDQAGRPKCPLDPYFIMPDKCKCVDFQTLKLQELPDAVPHGEMPRHMQLYCDRYLCDKVVPGNRVTIMGIYSIKKFGLTTSRGRDRVGVGIRSSYIRVLGIQVDTDGSGRSFAGAVSPQEEEEFRRLAALPNVYEVISKSIAPSIFGGTDMKKAIACLLFGGSRKRLPDGLTRRGDINLLMLGDPGTAKSQLLKFVEKCSPIGVYTSGKGSSAAGLTASVMRDPSSRNFIMEGGAMVLADGGVVCIDEFDKMREDDRVAIHEAMEQQTISIAKAGITTTLNSRCSVLAAANSVFGRWDETKGEDNIDFMPTILSRFDMIFIVKDEHNEERDVMLAKHVITLHVSALTQTQAVEGEIDLAKLKKFIAYCRVKCGPRLSAEAAEKLKNRYIIMRSGARQHERDSDRRSSIPITVRQLEAIVRIAEALSKMKLQPFATEADVEEALRLFQVSTLDAALSGTLSGVEGFTSQEDQEMLSRIEKQLKRRFAIGSQVSEHSIIKDFTKQKYPEHAIHKVLQLMLRRGEIQHRMQRKVLYRLK
B2: Ribosomal RNA methyltransferase NOP2 (protein, UniProt P46087 1-812)
chain: MGRKLDPTKEKRGPGRKARKQKGAETELVRFLPAVSDENSKRLSSRARKRAAKRRLGSVEAPKTNKSPEAKPLPGKLPKGISAGAVQTAGKKGPQSLFNAPRGKKRPAPGSDEEEEEEDSEEDGMVNHGDLWGSEDDADTVDDYGADSNSEDEEEGEALLPIERAARKQKAREAAAGIQWSEEETEDEEEEKEVTPESGPPKVEEADGGLQINVDEEPFVLPPAGEMEQDAQAPDLQRVHKRIQDIVGILRDFGAQREEGRSRSEYLNRLKKDLAIYYSYGDFLLGKLMDLFPLSELVEFLEANEVPRPVTLRTNTLKTRRRDLAQALINRGVNLDPLGKWSKTGLVVYDSSVPIGATPEYLAGHYMLQGASSMLPVMALAPQEHERILDMCCAPGGKTSYMAQLMKNTGVILANDANAERLKSVVGNLHRLGVTNTIISHYDGRQFPKVVGGFDRVLLDAPCSGTGVISKDPAVKTNKDEKDILRCAHLQKELLLSAIDSVNATSKTGGYLVYCTCSITVEENEWVVDYALKKRNVRLVPTGLDFGQEGFTRFRERRFHPSLRSTRRFYPHTHNMDGFFIAKFKKFSNSIPQSQTGNSETATPTNVDLPQVIPKSENSSQPAKKAKGAAKTKQQLQKQQHPKKASFQKLNGISKGADSELSTVPSVTKTQASSSFQDSSQPAGKAEGIREPKVTGKLKQRSPKLQSSKKVAFLRQNAPPKGTDTQTPAVLSPSKTQATLKPKDHHQPLGRAKGVEKQQLPEQPFEKAAFQKQNDTPKGPQPPTVSPIRSSRPPPAKRKKSQSRGNSQLLLS
B3: Isoform 2 of Nucleolar RNA helicase 2 (protein, UniProt Q9NR30-2 1-715)
chain: MNSPKSKKAKKKEEPSQNDISPKTKSLRKKKEPIEKKVVSSKTKKVTKNEEPSEEEIDAPKPKKMKKEKEMNGETREKSPKLKNGFPHPEPDCNPSEAASEESNSEIEQEIPVEQKEGAFSNFPISEETIKLLKGRGVTFLFPIQAKTFHHVYSGKDLIAQARTGTGKTFSFAIPLIEKLHGELQDRKRGRAPQVLVLAPTRELANQVSKDFSDITKKLSVACFYGGTPYGGQFERMRNGIDILVGTPGRIKDHIQNGKLDLTKLKHVVLDEVDQMLDMGFADQVEEILSVAYKKDSEDNPQTLLFSATCPHWVFNVAKKYMKSTYEQVDLIGKKTQKTAITVEHLAIKCHWTQRAAVIGDVIRVYSGHQGRTIIFCETKKEAQELSQNSAIKQDAQSLHGDIPQKQREITLKGFRNGSFGVLVATNVAARGLDIPEVDLVIQSSPPKDVESYIHRSGRTGRAGRTGVCICFYQHKEEYQLVQVEQKAGIKFKRIGVPSATEIIKASSKDAIRLLDSVPPTAISHFKQSAEKLIEEKGAVEALAAALAHISGATSVDQRSLINSNVGFVTMILQCSIEMPNISYAWKELKEQLGEEIDSKVKGMVFLKGKLGVCFDVPTASVTEIQEKWHDSRRWQLSVATEQPELEGPREGYGGFRGQREGSRGFRGQRDGNRRFRGQREGSRGPRGQRSGGGNKSNRSQNKGQKRSFSKAFGQ
B4: DNA replication licensing factor MCM3 (protein, UniProt P25205 1-808)
chain: MAGTVVLDDVELREAQRDYLDFLDDEEDQGIYQSKVRELISDNQYRLIVNVNDLRRKNEKRANRLLNNAFEELVAFQRALKDFVASIDATYAKQYEEFYVGLEGSFGSKHVSPRTLTSCFLSCVVCVEGIVTKCSLVRPKVVRSVHYCPATKKTIERRYSDLTTLVAFPSSSVYPTKDEENNPLETEYGLSVYKDHQTITIQEMPEKAPAGQLPRSVDVILDDDLVDKAKPGDRVQVVGTYRCLPGKKGGYTSGTFRTVLIACNVKQMSKDAQPSFSAEDIAKIKKFSKTRSKDIFDQLAKSLAPSIHGHDYVKKAILCLLLGGVERDLENGSHIRGDINILLIGDPSVAKSQLLRYVLCTAPRAIPTTGRGSSGVGLTAAVTTDQETGERRLEAGAMVLADRGVVCIDEFDKMSDMDRTAIHEVMEQGRVTIAKAGIHARLNARCSVLAAANPVYGRYDQYKTPMENIGLQDSLLSRFDLLFIMLDQMDPEQDREISDHVLRMHRYRAPGEQDGDAMPLGSAVDILATDDPNFSQEDQQDTQIYEKHDNLLHGTKKKKEKMVSAAFMKKYIHVAKIIKPVLTQESATYIAEEYSRLRSQDSMSSDTARTSPVTARTLETLIRLATAHAKARMSKTVDLQDAEEAVELVQYAYFKKVLEKEKKRKKRSEDESETEDEEEKSQEDQEQKRKRRKTRQPDAKDGDSYDPYDFSDTEEEMPQVHTPKTADSQETKESQKVELSESRLKAFKVALLDVFREAHAQSIGMNRLTESINRDSEEPFSSVEIQAALSKMQDDNQVMVSEGIIFLI
B5: Nucleolar protein 58, Q9Y2X3 1-529 (protein)
chain: MLVLFETSVGYAIFKVLNEKKLQEVDSLWKEFETPEKANKIVKLKHFEKFQDTAEALAAFTALMEGKINKQLKKVLKKIVKEAHEPLAVADAKLGGVIKEKLNLSCIHSPVVNELMRGIRSQMDGLIPGVEPREMAAMCLGLAHSLSRYRLKFSADKVDTMIVQAISLLDDLDKELNNYIMRCREWYGWHFPELGKIISDNLTYCKCLQKVGDRKNYASAKLSELLPEEVEAEVKAAAEISMGTEVSEEDICNILHLCTQVIEISEYRTQLYEYLQNRMMAIAPNVTVMVGELVGARLIAHAGSLLNLAKHAASTVQILGAEKALFRALKSRRDTPKYGLIYHASLVGQTSPKHKGKISRMLAAKTVLAIRYDAFGEDSSSAMGVENRAKLEARLRTLEDRGIRKISGTGKALAKTEKYEHKSEVKTYDPSGDSTLPTCSKKRKIEQVDKEDEITEKKAKKAKIKVKVEEEEEEKVAEEEETSVKKKKKRGKKKHIKEEPLSEEEPCTSTAIASPEKKKKKKKKRENED

The chains behind the UniProt entries cited, without tags or fusion partners.
UniProt Q15910: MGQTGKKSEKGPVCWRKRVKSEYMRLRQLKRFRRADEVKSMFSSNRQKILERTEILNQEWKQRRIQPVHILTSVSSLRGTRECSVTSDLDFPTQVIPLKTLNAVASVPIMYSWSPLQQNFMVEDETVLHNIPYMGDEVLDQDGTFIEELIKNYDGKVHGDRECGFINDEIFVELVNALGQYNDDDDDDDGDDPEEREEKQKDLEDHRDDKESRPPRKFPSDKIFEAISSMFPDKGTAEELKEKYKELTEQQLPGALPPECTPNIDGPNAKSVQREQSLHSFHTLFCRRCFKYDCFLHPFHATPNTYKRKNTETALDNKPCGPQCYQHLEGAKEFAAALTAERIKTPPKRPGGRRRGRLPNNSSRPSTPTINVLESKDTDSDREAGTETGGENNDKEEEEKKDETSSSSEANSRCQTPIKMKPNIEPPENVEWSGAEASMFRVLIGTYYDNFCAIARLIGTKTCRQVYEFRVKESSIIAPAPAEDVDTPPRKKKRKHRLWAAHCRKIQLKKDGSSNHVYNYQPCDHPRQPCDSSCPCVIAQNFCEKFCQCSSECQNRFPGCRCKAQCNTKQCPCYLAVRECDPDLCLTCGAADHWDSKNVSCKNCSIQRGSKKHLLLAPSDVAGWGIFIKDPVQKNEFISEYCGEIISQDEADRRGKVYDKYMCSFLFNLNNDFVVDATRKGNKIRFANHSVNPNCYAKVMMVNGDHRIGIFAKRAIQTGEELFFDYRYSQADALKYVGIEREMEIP
UniProt P11387: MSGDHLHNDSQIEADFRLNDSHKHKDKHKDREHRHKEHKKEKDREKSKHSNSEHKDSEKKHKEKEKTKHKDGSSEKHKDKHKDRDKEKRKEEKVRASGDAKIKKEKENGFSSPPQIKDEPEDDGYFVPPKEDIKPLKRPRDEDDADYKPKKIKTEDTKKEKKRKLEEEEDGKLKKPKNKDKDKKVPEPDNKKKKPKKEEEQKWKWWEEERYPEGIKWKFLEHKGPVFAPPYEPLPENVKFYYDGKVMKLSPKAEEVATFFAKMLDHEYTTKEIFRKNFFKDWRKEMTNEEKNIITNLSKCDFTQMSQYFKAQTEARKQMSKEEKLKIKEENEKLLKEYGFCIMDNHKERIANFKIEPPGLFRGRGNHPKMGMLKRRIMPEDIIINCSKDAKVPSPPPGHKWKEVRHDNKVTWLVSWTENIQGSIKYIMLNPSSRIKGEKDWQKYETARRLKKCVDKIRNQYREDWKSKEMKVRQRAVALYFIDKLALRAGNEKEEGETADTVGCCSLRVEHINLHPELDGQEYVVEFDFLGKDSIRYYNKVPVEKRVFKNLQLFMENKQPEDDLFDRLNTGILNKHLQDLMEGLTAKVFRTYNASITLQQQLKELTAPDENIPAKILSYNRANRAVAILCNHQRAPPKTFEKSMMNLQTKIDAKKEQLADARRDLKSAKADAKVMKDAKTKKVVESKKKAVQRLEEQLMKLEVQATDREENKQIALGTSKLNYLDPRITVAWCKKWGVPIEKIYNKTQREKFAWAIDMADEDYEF
UniProt P11142: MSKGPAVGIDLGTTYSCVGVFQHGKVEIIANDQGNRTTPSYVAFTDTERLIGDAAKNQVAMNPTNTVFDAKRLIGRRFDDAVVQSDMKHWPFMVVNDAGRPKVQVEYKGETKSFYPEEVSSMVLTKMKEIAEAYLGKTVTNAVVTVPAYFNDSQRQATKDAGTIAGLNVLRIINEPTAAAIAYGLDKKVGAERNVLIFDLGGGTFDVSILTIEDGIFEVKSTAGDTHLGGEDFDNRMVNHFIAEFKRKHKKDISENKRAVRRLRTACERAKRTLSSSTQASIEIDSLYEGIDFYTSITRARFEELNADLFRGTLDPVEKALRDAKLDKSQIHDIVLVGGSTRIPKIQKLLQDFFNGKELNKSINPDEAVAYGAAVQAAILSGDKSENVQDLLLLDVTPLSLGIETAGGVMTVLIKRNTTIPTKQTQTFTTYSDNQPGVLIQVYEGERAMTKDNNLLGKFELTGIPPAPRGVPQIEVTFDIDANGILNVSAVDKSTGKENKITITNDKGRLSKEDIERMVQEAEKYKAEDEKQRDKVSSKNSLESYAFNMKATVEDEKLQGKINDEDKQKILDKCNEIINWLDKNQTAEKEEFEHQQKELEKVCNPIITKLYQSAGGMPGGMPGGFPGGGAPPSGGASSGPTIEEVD
UniProt P08238: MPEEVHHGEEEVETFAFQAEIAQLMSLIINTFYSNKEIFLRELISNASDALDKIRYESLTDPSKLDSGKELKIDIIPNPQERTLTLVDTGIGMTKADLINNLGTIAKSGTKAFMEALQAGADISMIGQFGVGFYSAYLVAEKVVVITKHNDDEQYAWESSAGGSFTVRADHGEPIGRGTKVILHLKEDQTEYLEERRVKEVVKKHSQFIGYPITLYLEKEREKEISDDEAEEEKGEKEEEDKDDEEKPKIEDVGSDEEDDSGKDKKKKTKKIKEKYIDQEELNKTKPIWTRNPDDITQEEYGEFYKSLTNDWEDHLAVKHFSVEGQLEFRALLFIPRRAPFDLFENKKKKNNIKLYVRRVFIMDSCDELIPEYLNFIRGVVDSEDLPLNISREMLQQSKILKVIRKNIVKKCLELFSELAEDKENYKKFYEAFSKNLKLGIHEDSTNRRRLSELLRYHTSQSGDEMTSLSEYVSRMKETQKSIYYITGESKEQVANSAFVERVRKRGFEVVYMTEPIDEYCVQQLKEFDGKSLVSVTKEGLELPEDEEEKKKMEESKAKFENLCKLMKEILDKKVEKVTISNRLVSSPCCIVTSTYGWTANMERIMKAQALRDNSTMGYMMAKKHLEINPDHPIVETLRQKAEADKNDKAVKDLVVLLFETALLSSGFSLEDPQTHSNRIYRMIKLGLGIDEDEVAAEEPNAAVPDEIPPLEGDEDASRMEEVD
UniProt Q9Y483: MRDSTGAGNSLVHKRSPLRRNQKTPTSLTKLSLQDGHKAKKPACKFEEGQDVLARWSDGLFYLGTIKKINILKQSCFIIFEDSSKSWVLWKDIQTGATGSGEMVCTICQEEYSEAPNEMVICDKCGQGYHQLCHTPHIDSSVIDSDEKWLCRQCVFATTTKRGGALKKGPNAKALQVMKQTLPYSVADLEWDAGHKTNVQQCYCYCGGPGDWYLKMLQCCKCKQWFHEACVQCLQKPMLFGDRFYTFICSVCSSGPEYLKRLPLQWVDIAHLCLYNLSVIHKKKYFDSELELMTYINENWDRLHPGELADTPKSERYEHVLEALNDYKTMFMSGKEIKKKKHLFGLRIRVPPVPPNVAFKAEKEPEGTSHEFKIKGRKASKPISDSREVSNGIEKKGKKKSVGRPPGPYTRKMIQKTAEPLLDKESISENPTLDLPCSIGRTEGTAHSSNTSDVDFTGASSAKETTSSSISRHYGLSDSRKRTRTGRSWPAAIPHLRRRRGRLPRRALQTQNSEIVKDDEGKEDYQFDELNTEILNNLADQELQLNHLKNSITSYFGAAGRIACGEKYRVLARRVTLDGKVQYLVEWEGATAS
UniProt O00567: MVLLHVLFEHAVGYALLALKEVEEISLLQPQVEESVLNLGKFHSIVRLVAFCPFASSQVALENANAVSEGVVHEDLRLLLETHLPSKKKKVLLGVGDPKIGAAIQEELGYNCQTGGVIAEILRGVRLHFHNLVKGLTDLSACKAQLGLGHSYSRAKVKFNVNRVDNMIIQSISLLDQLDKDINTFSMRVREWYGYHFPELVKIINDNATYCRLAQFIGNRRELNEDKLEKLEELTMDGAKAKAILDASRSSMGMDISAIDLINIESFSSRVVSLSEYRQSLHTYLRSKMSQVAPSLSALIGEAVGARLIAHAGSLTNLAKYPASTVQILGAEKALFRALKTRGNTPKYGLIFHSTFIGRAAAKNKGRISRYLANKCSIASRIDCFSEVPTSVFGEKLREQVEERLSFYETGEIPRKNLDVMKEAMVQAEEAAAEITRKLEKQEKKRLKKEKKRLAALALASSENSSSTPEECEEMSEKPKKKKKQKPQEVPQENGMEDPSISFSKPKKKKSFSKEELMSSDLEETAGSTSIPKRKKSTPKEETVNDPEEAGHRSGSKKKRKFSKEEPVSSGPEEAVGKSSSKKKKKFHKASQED
UniProt P13010: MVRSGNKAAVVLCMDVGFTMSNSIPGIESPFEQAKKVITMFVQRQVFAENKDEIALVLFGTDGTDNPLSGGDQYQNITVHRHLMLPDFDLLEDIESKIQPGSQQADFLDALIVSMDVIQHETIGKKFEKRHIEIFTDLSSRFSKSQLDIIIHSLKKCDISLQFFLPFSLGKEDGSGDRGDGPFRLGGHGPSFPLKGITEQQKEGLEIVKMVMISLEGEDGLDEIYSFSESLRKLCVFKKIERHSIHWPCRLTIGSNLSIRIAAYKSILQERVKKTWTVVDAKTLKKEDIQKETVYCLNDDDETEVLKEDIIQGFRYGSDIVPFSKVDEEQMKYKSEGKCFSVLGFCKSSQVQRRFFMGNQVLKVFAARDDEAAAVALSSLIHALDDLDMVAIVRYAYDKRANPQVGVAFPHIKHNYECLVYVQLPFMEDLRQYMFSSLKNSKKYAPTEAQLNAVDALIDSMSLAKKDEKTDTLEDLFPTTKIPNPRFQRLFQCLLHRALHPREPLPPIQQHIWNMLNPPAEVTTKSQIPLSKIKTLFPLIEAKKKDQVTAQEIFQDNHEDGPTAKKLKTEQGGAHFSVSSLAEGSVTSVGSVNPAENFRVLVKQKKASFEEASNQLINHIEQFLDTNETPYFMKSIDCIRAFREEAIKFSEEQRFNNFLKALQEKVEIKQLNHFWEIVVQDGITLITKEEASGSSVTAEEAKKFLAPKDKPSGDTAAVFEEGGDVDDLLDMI

The molecules below were run against Histone-lysine N-methyltransferase EZH2 (human (endogenous in Jurkat)) (UniProt Q15910) (assay: affinity purification with mass spectrometry; nuclear protein fraction of Jurkat T cells; anti-EZH2 antibody cross-linked (disuccinimidyl suberate) to protein A/G magnetic beads, overnight, washed three times with lysis buffer (150 mM NaCl, 1.0% NP-40, 50 mM Tris-Cl pH 7.4); Coomassie-stained bands cut and analysed by MS). Conditions: not given.

binding, binds:
DNA topoisomerase 1 (from UniProt P11387 1-765)
Heat shock cognate 70 protein (from UniProt P11142 1-646)
Heat shock protein 90-beta (from UniProt P08238 1-724)
Metal-response element-binding transcription factor 2 (from UniProt Q9Y483 1-593)
Nucleolar protein 56 (from UniProt O00567 1-594)
X-ray repair cross-complementing protein 5 (from UniProt P13010 1-732)
B1
B2
B3
B4

What follows are molecules tested against Histone-lysine N-methyltransferase EZH2 (human (endogenous in Jurkat)), Q15910 in the same assay as above. Conditions: remark: other sources report otherwise.

binding, binds:
B5

Source: publication PMC4973345
